Test results: PubChem BioAssay AID1487 (National Center for Advancing Translational Sciences (NCATS), 2009)
In all, about 200,000 compounds went through this assay and about 25 (0.01%) were called active. Inconclusive results, whose numbers are uncertain, are shown with a selection of clear calls. Calls come from the whole dose curve; as a rule, active = well fitted inhibition curve with a large enough effect in the signal ratio, with a control signal flat (not every such curve was filed as active); inconclusive = small, poorly fitted or top-dose-only effect, or effect the other way, or a change in a side signal; inactive = flat fitted curve, though single readings scatter; the % refers to the signal ratio. Potencies beside an inconclusive call are fits to weak or partial responses and may not hold up.

assay: qHTS Assay for Modulators of Lamin A Splicing; conditions: HeLa LMNA splicing GFP/RFP minigene ratio, 48 h; ratio change, negative = inhibition: at 46.1 µM (top of the series) unless noted
Summary of the method: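 Read-out is the ratio of GFP to DsRed2 object intensity, acquired by 488 nm laser-scanning cytometry on HeLa lamin A-EGFP minigene reporter cells. Compound incubation 48 hrs at 37 °C in Opti-MEM with 2% FBS; DMSO 0.5% final.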
% is set by controls: 0 for no effect and ±100 for the full control effect; potency is the fitted concentration of half-maximal effect.

SMILES	ratio change, negative = inhibition	Potency
Cc1ccc2nc(SCc3nc4ccccc4c(=O)[nH]3)[nH]c2c1	inconclusive: -28.5% [at 46 µM]	
Cc1onc(-c2c(F)cccc2Cl)c1C(=O)OCn1nnc2ccccc2c1=O		inconclusive: 35.5 µM [falling, single point]
Cc1ccc(NC(=O)CCCC(=O)O)c(Br)c1	inactive: 0.98%	
CCCCOc1cccc(C(=O)N(Cc2ccc(C)o2)c2ccccn2)c1	inactive: 3.31% [at 46 µM]	
COc1ccc(NS(=O)(=O)c2ccc3[nH]c4c(c3c2)CCCC4)cc1OC	inactive: -23.4% [at 46 µM]	
Cc1ccc(C)c(NC(=O)c2ccc(CN3CC(=O)N4CCCCC4C3=O)cc2)c1 (stereo not given)	inactive: -0.0942% [at 46 µM]	
CC1CN(S(=O)(=O)c2ccc(Cl)c(C(F)(F)F)c2)CC(C)O1 (stereo not given)	inactive: -5%	
Cc1ccc(NNC(=O)C(O)(c2cccc(C(F)(F)F)c2)c2cccc(C(F)(F)F)c2)cc1	inconclusive: 20.8%	
CCN(CC)CCCN(Cc1cc2cc3c(cc2[nH]c1=O)OCO3)C(=S)NCc1ccco1	inconclusive: 22.8% [at 46 µM]	
Cc1ccc(OCCn2c(=S)[nH]c3c(N)ncnc32)cc1	inconclusive: 4.08% [at 46 µM]	
COCCNC(=O)C(c1ccc(O)cc1)N(C(=O)CCC(=O)Nc1nccs1)c1cccc(C)c1 (stereo not given)	inconclusive: 14.8% [at 46 µM]	
CC(=O)Nc1ccc2c(COC(=O)CC3Sc4ccccc4NC3=O)cc(=O)oc2c1 (stereo not given)	inconclusive: -17.5% [at 46 µM]	
CCOc1cc(CN2CCCCC2)ccc1OC	inactive: 2.45%	
CCC(C)C(=O)OC1CC(O)C=C2C=CC(C)C(CCC(O)CC(O)CC(=O)O)C21 (stereo not given)	inconclusive: -22.4%	
O=C(COc1ccc(Cl)cc1Cl)N(c1ccccn1)C1CCCCC1		inconclusive: 35.5 µM [falling, single point]
O=C(NCC(c1ccco1)S(=O)(=O)c1cccs1)c1ccccc1F (stereo not given)	inactive: 7.24% [at 46 µM]	
NS(=O)(=O)c1ccc(NC(=S)N2CCN(c3cccc(Cl)c3)CC2)cc1		inconclusive: 35.5 µM [fluorescent, single point]
Cn1nnc(C(O)CN2CCOCC2)n1 (stereo not given)	inconclusive: -0.318%	
COc1ccc(-n2nnc3c(SCC(=O)Nc4ccc5c(c4)OCCO5)ncnc32)cc1	inactive: -6.01%	
O=C(Nn1cnc2ccccc2c1=O)c1ccc([N+](=O)[O-])cc1Cl	inconclusive: -29% [at 46 µM]	
O=C(COc1ccc2ccccc2c1)NC1CC(=O)N(c2cccc(F)c2)C1 (stereo not given)	inactive: 22.6% [at 46 µM]	
CN(C)/C=C/c1onc(-c2c(Cl)cccc2Cl)c1C#N	inactive: -4.04% [at 9.22 µM]	

SMILES	ratio change, negative = inhibition	Potency
CCc1ccc(-n2c(C)nc3cc(C(=O)NCCc4ccccc4)ccc32)cc1	inconclusive: -23.7% [at 46 µM]	
CCc1c(O)nc(SCC(=O)Nc2ccccc2)n(-c2ccccc2)c1=O	inactive: -5.25%	
CCN(CC)CCNC(=O)c1cc(Br)c(N)cc1OC	inconclusive: -1.09%	
Cc1cc(OCC(=O)Nc2cccc(S(=O)(=O)NC3=NCCCCC3)c2)ccc1Cl		inconclusive: 35.5 µM [fluorescent, single point]
CC(C)Cc1nn2c(=O)cc(COC(=O)c3ccccc3NC(=O)c3ccccc3)nc2s1	inactive: -1.39% [at 46 µM]	
CCCCC(=O)NC(=S)Nc1cccc(C(=O)O)c1	inconclusive: -1.72% [at 46 µM]	
COC(=O)C1=C(C(=O)OC)[C@@H]2N(C)c3ccc(OC)cc3[C@@]23C[C@@H](C(=O)OC)N(C(C)=O)C3=N1	inactive: -19.6% [at 9.22 µM]	
O=C(CSc1nnnn1C1CCCCC1)NCCc1ccccc1	inconclusive: 3.68%	
Cc1ccc2nsnc2c1S(=O)(=O)NC1CC1	inactive: -9.39%	
CC(=O)Nc1ccc(OCc2nnc(-c3ccc(Cl)cc3)o2)cc1	inconclusive: 9.99% [at 46 µM]	
Cc1ccc(O)c(-c2cc(C(=O)Nc3c(C)n(C)n(-c4ccccc4)c3=O)[nH]n2)c1	inconclusive: -4.43%	
Cc1cccc(C(=O)Nc2ccc(N3CCC(CCN4CCOCC4)CC3)c(C(=O)O)c2)c1	inconclusive: 29.4% [at 46 µM]	
Cc1cc(C)n(C(=O)CCN2C(=O)c3ccccc3C2=O)n1	inconclusive: -4.28%	
Nc1nc2c(Cl)cc(Cl)cc2s1	inconclusive: 19% [at 9.22 µM]	
CCOC(=O)c1c(N)nn(C(=O)C(C)(C)C)c1-c1ccccc1	inactive: -0.319%	
CCNc1nc(NCC)nc(N/N=C(\C)c2ccc(OC)cc2)n1	inconclusive: -4.65% [at 46 µM]	
O=C(Nc1cccc(C(F)(F)F)c1)C1CCN(S(=O)(=O)c2cnc[nH]2)CC1	inactive: -11.7%	
CCOC(=O)c1c(C)oc2nc(C)nc(NCCCN3CCN(c4cccc(C)c4)C(C)C3)c12 (stereo not given)	inactive: -15.7% [at 46 µM]	
Cc1sc2nc(C)n(/N=C/c3ccc(O)cc3)c(=O)c2c1C	inactive: 3.71%	
Cn1cc([N+](=O)[O-])c(C(=O)Nc2ccc3c(c2)OCCO3)n1		inconclusive: 35.5 µM [cytotoxic, single point]
O=C(NC1CCCC1)c1ccc2c(c1)N(Cc1ccc(F)cc1)C(=O)c1ccccc1S2	inconclusive: -9.53% [at 46 µM]	
Cc1cc(S(=O)(=O)NCc2ccc(S(N)(=O)=O)cc2)c(C)s1	inconclusive: 1.6%	

SMILES	ratio change, negative = inhibition	Potency
Cc1ccc(NC(=S)NCC23C=CC(O2)C2C(=O)N(c4ccc(C)cc4)C(=O)C23)cc1 (stereo not given)	inactive: -6.3%	
O=C(Nc1ccc2c(c1)N(C1CCCC1)C(=O)c1ccccc1S2)c1ccccc1	inconclusive: -50.3% [at 46 µM]	
COc1cccc2c1CCC1CC(=O)CC[C@@]21C (stereo not given in full)	inconclusive: -4.36%	
CCCOc1ccc(-c2nnn(CC(=O)c3ccc4c(c3)OCCO4)n2)cc1	inconclusive: -35.8%	
CC(=O)OCC(=O)c1ccc2ccn(C(C)=O)c2c1	inactive: -2.09%	
Cc1ccc(OCC(=O)Nc2ccc3nc(SCC(=O)N4CCCC4)sc3c2)cc1C	inactive: 4.76% [at 46 µM]	
CN[C@]1(C)[C@H]2CC[C@@H](C2)C1(C)C	inconclusive: 12.2%	
CCOc1ccccc1-n1c(N)c(C(N)=O)sc1=S	inactive: 11.1%	
CS(=O)(=O)N(Cc1ccc(C(=O)NN=C2CCCCCC2)cc1)c1ccccc1	inactive: -13.1%	
Cc1ccc(C)c(NC(=O)COc2cccc3c2CCN(Cc2ccccc2C)C3=O)c1	inactive: -7.03%	
CC1=C(C(N)=O)C(c2cccc(C)c2)n2nc(-c3ccc(Cl)cc3)nc2N1 (stereo not given)	inconclusive: -36.1% [at 46 µM]	
Cc1cc(C)cc(-n2c(SC(C)C(=O)NCc3ccc4c(c3)OCO4)nc3ccccc3c2=O)c1 (stereo not given)	inactive: -8.36%	
Cc1ccc(C)c(NC(=O)C(=O)NCC(c2cccnc2)N2CCN(c3ccc(F)cc3)CC2)c1 (stereo not given)	inactive: -5.78% [at 46 µM]	
Cc1cc(Oc2ccc3ccccc3c2)nc(SCC(=O)c2ccccc2)n1		inconclusive: 35.5 µM [falling, single point]
COc1ccc(/C=C/c2nc3ccccc3n2Cc2ccccc2OC)cc1		inconclusive: 35.5 µM [falling, single point]
COC(=O)/C(C(C)=O)=C(\C=C\N(C)C)N(C)C	inactive: -4.15%	
CC1Cc2ccccc2N1C(=S)Nc1ccc(S(N)(=O)=O)cc1 (stereo not given)		inconclusive: 25.1 µM [fluorescent, single point]
COC(=O)CSC1=C(C#N)C(c2ccc(C)o2)CC(=O)N1 (stereo not given)	inconclusive: -0.248% [at 46 µM]	
O=C(Nc1ccccc1Cl)c1cc(S(=O)(=O)N2CCCC(C(=O)O)C2)ccc1F (stereo not given)	inconclusive: 10%	
O=c1c2c(nc3c(-c4cccc5ccccc45)c[nH]n13)CCC2		inconclusive: 35.5 µM [falling, single point]
COC(=O)C1CCN(S(C)(=O)=O)CC1	inactive: -1.25%	
CCc1nnc(N2C(=N)SCC2=O)s1	inconclusive: 16.7% [at 46 µM]	

SMILES	ratio change, negative = inhibition	Potency
O=C(CCl)N=c1sccn1Cc1ccc(Cl)cc1Cl	inconclusive: 139% [at 46 µM]	
CC(=O)Oc1ccc(Nc2ccccc2)cc1	inconclusive: -41.7% [at 46 µM]	
CC(=O)Nc1ccccc1-c1nnc(SCc2ccccc2Cl)[nH]c1=O	inactive: 14.7%	
CCc1ccc(-c2[nH]c3c(c2-c2c(-n4cccc4)n(C)c(=O)n(C)c2=O)c(=O)n(C)c(=O)n3C)cc1	inactive: -9.07% [at 46 µM]	
Cn1c(C(=O)N2CCN(C3CCCCC3)CC2)cc2c(=O)n(C)c3ccccc3c21	inactive: -1.94%	
N#CCCn1cc(C(=O)N2CCOCC2)c(-c2ccc3c(c2)OCCO3)n1	inconclusive: 8.97% [at 46 µM]	
O=C(CNc1cccc2ccccc12)N/N=C/c1ccc([N+](=O)[O-])o1	inconclusive: -41.1%	
c1ccc(Nc2scc(-c3ccccc3)[n+]2Cc2ccco2)cc1	inconclusive: -30.9% [at 46 µM]	
COc1cccc(CN2CCN(Cc3nc4c(s3)CCCC4)CC2CCO)c1 (stereo not given)	inconclusive: 27.4% [at 46 µM]	
O=C(Nc1ccccc1)c1[nH]ncc1[N+](=O)[O-]	inactive: -7.57%	
O=C(CSc1ccc(Cl)cc1)c1ccco1	inconclusive: 14.4%	
CCN1CCCC(CO)(Cc2ccccc2)C1 (stereo not given)	inconclusive: 2.15% [at 46 µM]	
COc1cc(S(=O)(=O)N2CCN=C2c2ccccc2)ccc1F	inconclusive: -32.8%	
Cc1ccc(-c2[nH]c(=O)n3ccncc23)s1	inactive: 10.8%	
CCOc1ccc(C2=[N+]([O-])C(C)(C)N(O)C2(C)C)cc1	inconclusive: 14.2%	
COC(=O)c1cc(Cl)c(NC(=O)/C=C/c2ccc(Cl)cc2Cl)cc1OC	inactive: -6.83%	
CCCCCCOC(=O)C(C#N)c1nc2ccccc2nc1N1CCCCC1 (stereo not given)	inactive: 17.7%	
COCCNC(=O)CSc1nnc(-c2ccc(OC)c(OC)c2)c(-c2ccc(OC)c(OC)c2)n1	inactive: -21.4% [at 46 µM]	
Cn1c(SCC(=O)Nc2cccc(C(=O)O)c2)nnc1-c1cc2cc(Br)ccc2o1	inconclusive: 9.61% [at 46 µM]	

Whole records from above.
`CCCCCCOC(=O)C(C#N)c1nc2ccccc2nc1N1CCCCC1` (stereo not given) is entered as ratio change, negative = inhibition: inactive: 17.7%
`CCc1ccc(-c2[nH]c3c(c2-c2c(-n4cccc4)n(C)c(=O)n(C)c2=O)c(=O)n(C)c(=O)n3C)cc1` is entered as ratio change, negative = inhibition: inactive: -9.07% [at 46 µM]
`CCOc1ccc(C2=[N+]([O-])C(C)(C)N(O)C2(C)C)cc1` is entered as ratio change, negative = inhibition: inconclusive: 14.2%
